PubChem BioAssay AID590 (National Center for Advancing Translational Sciences (NCATS), 2007)
In all, about 59,000 compounds went through this assay and about 6,500 (11%) were called active. Inconclusive means that the source gave no clear call. Such entries were picked first, then a sample of the others. No stated cut-off is given here; in the data, active means max dye-equivalent concentration above about 10 nM; inconclusive means mostly about 1.1 nM to 9.6 nM; inactive means weaker than that.

Experiment: qHTS Assay for Spectroscopic Profiling in A350 Spectral Region
Conditions: Compound autofluorescence, 340/450 nm, Alexa 350 dye-equivalents; hits give high values
In the case of `O=C(O)Cn1nc(C(F)(F)F)c2c1CCCCC2`, the max dye-equivalent concentration is reported as inconclusive: 1.5 nM. With `Cc1cc2c(cc1Cl)N(C(=O)Nc1ccnc3ccccc13)CC2` the max dye-equivalent concentration was inconclusive: 3.9 nM. In the case of `O=c1c(-c2nc3ccccc3o2)c2oc3ccccc3n2c2ccccc12`, the max dye-equivalent concentration is reported as active: 160 nM. With `COC(=O)c1ccc(NC(=O)CSc2nnc(C)n2-c2ccccc2)cc1` the max dye-equivalent concentration was “inactive”. For `Cc1c(NC(=O)CN2c3cccc4cccc(c34)S2(=O)=O)c(=O)n(-c2ccccc2)n1C`, the max dye-equivalent concentration was active: 74 nM. For `Cc1ccc(C2NC(=O)c3c(sc4c3CCN(C)C4)N2)s1` (centres undefined), the max dye-equivalent concentration was active: 140 nM. In the case of `O=C(NCCc1ccccc1)C1CCN(S(=O)(=O)N2CCCC2)CC1`, the max dye-equivalent concentration is reported as inconclusive: 1.7 nM. In the case of `O=C(O)COc1ccc2c(-c3ccccc3)cc(=O)oc2c1`, the max dye-equivalent concentration is reported as inconclusive: 1.3 nM. For `CN1CCN(S(=O)(=O)c2ccc(Sc3nnc(-c4cccs4)n3-c3ccccc3)nc2)CC1`, the max dye-equivalent concentration was “inactive”. With `COc1ccc2[nH]c(=O)c(CN(C(=O)c3ccncc3)C(C)(C)C)cc2c1` the max dye-equivalent concentration was active: 91 nM. For `COc1cc(C(=O)NCCc2nc3ccccc3n2C)cc(OC)c1OC`, the max dye-equivalent concentration was inconclusive: 2.1 nM. For `CCN(CC)S(=O)(=O)c1ccc(NC(=O)c2cccc3c2C(=O)N(CCOC)C3)cc1`, the max dye-equivalent concentration was active: 120 nM. In the case of `C[C@H](O)C(=O)Nc1c(I)c(C(=O)NC(CO)CO)c(I)c(C(=O)NC(CO)CO)c1I`, the max dye-equivalent concentration is reported as inconclusive: 1.6 nM. With `COC(=O)c1[nH]c2ccccc2c1NC(=O)CN1CCCc2ccccc21` the max dye-equivalent concentration was “inactive”. For `COc1cccc(-c2cc(C(F)(F)F)n3ncc(C(=O)NCC4CCCO4)c3n2)c1` (centres undefined), the max dye-equivalent concentration was active: 30 nM. In the case of `C[C@]12CC[C@H]3c4ccc(O)cc4CC[C@@H]3[C@H]1CC[C@@H]2OC(=O)CCc1ccccc1`, the max dye-equivalent concentration is reported as “inactive”. For `CCCCNC(=O)CSc1cc(=O)n(C)c2ccccc12`, the max dye-equivalent concentration was inconclusive: 1.9 nM. With `CCn1ccc(C(=O)Nc2ccc(S(=O)(=O)Nc3ccccc3OC)cc2)n1` the max dye-equivalent concentration was “inactive”. In the case of `CCc1ccccc1NC(=O)N1C2CCCC1CC(NC(C)=O)C2` (centres undefined), the max dye-equivalent concentration is reported as inconclusive: 1.5 nM. In the case of `CCOC(=O)COn1c(=O)c(-c2ccc(OC)c(OC)c2)[n+]([O-])c2ccccc21`, the max dye-equivalent concentration is reported as inconclusive: 2.3 nM. For `N[C@H](C(=O)O)c1cc(O)cc(O)c1`, the max dye-equivalent concentration was “inactive”. In the case of `Cc1cccc(C#Cc2ccccc2)n1`, the max dye-equivalent concentration is reported as “inactive”. With `CC(=O)c1ccc(S(=O)(=O)N(Cc2cc3cc4c(cc3[nH]c2=O)OCCO4)CC2CCCO2)cc1` (centres undefined) the max dye-equivalent concentration was inconclusive: 4.3 nM. For `Cc1ccc(C2C3=C(CCCC3=O)Nc3[nH]c(=S)[nH]c(=O)c32)cc1` (centres undefined), the max dye-equivalent concentration was inconclusive: 3.9 nM. With `CCc1ccc(NS(=O)(=O)c2ccc3[nH]cc(C(=O)N4CCCCC4)c(=O)c3c2)cc1` the max dye-equivalent concentration was inconclusive: 5.8 nM. With `COC(=O)c1c(NC(=O)CN2CCC(C(N)=O)CC2)c2c(C)cccc2n1C` the max dye-equivalent concentration was inconclusive: 3.2 nM. With `Cc1nc2cnc(N3CCNCC3)nc2n(CCc2ccccc2)c1=O` the max dye-equivalent concentration was active: 60 nM. With `CCOC(=O)C(CC)Sc1nc(-c2ccc(OC)cc2)nc2c1c(=O)n(C)c(=O)n2C` (centres undefined) the max dye-equivalent concentration was active: 32 nM. For `COc1ccc(CCC(=O)Nc2nc3c(s2)CN(C)CC3)cc1OC`, the max dye-equivalent concentration was active: 16 nM. For `CCOc1ccc2c(c1)cc(CN(C(=O)CC)C1CCCCC1)c1nnnn12`, the max dye-equivalent concentration was “inactive”. With `CCC(=O)N1CCc2cc(Br)cc(S(=O)(=O)NCC3CCCN3CC)c21` (centres undefined) the max dye-equivalent concentration was “inactive”. In the case of `CC(=O)c1c(N2CCOCC2)nc(=S)n(-c2cc(C)ccc2C)c1C`, the max dye-equivalent concentration is reported as “inactive”. With `O=C(CSCc1n[nH]c(=O)[nH]1)NCCOc1cccc(Oc2ccccc2)c1` the max dye-equivalent concentration was active: 190 nM. For `Cc1cccc(Cn2c(=O)c3c(nc4n3CCN4Cc3ccco3)n(C)c2=O)c1`, the max dye-equivalent concentration was inconclusive: 1.7 nM. With `Cc1ccc(-c2c(C#N)c(N)nc3c2CCCCC3)o1` the max dye-equivalent concentration was active: 70 nM. For `O=C(NCCN1CCN(c2ccccc2)CC1)C1CCN(S(=O)(=O)c2cccs2)CC1`, the max dye-equivalent concentration was “inactive”. With `COc1ccc(N2CCN(C(=O)CSc3nc4cc(OC)c(OC)cc4cc3C#N)CC2)cc1` the max dye-equivalent concentration was inconclusive: 4.1 nM. With `O=C(NC1CCCCC1)N1CCc2ccccc21` the max dye-equivalent concentration was inconclusive: 3.6 nM. In the case of `N=C(N)SCCSC(=N)N`, the max dye-equivalent concentration is reported as “inactive”. For `CCOC(=O)CNS(=O)(=O)c1ccc(S(=O)(=O)N2CCCC2)cc1`, the max dye-equivalent concentration was “inactive”. With `Cc1cc(N2CCN(C)CC2)nc2ccc(NC(=O)c3ccc(Br)o3)cc12` the max dye-equivalent concentration was inconclusive: 3.3 nM. With `O=C(O)[C@H](Cc1ccccc1)N1C(=O)c2ccccc2C1=O` the max dye-equivalent concentration was inconclusive: 3.4 nM. With `CCc1ccccc1NC1=NCC(=O)N1Cc1ccc(OC)cc1` the max dye-equivalent concentration was inconclusive: 3.5 nM. For `CCOC(=O)CCCc1sc(N)nc1-c1[nH]c(=O)[nH]c1C`, the max dye-equivalent concentration was inconclusive: 3.4 nM.
